PubChem BioAssay AID1508588 | Peter MacCallum Cancer Centre, 2020
Shown is one part, drawn at random, of about 18,000 deposited reagents. 790 of them (4.4%) were called active. 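Calls rest on a combination of fold-change classes in drug and vehicle arms, not all shown here.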 A number with no mark means an inactive call.

Purpose: 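Knock-downs boosting vemurafenib effects on melanoma cell growth or lactate release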 (primary screen)
System: human WM266.4 melanoma cells (BRAF V600 mutant)
Knock-down reagent: siRNA pool against human genes, 40 nM
Time to read-out: 96 h from transfection to read-out
Conditions: vemurafenib 300 nM (about IC25), added 48 h after transfection, for 48 h; comparison arm got DMSO vehicle only
Measured: 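Ratios to non-targeting siRNA for cell gain, counted as DAPI nuclei after minus before drug and averaged over two replicates, and for absorbance-read medium lactate per cell; both binned into fold-change classes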
Scale: cell gain with vemurafenib: higher = more cell gain than with non-targeting siRNA; lactate per cell with vemurafenib: higher = more lactate made per cell
Hit rule: 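a knock-down counts as enhancing when its fold-change classes with vehicle and with vemurafenib, taken together, show a stronger drug effect on cell gain or lactate per cell; exact class pairs not stated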
Meaning of the calls: active = enhances vemurafenib effect; inactive = no enhancement seen

| gene knocked down | cell gain with vemurafenib | lactate per cell with vemurafenib |
| --- | --- | --- |
| FAM120B (family with sequence similarity 120 member B) | 0.69 | 1.13 |
| TOM1 (target of myb1 membrane trafficking protein) | 0.17 | 2.46 |
| PAX1 (paired box 1) | 0.55 | 0.84 |
| ZDHHC3 (zDHHC palmitoyltransferase 3) | 0.73 | 0.52 |
| FFAR2 (free fatty acid receptor 2) | 0.8 | 1.1 |
| GMFG (glia maturation factor gamma) | 0.7 | 0.52 |
| C8orf44 (chromosome 8 putative open reading frame 44) | 0.65 | 1.38 |
| GLB1L2 (galactosidase beta 1 like 2) | -0.11 | 3.7 |
| HLA-F (major histocompatibility complex, class I, F) | 0.91 | 0.7 |
| IFNA2 (interferon alpha 2) | 0.85 | 0.97 |
| FLRT1 (fibronectin leucine rich transmembrane protein 1) | 0.27 | 1.72 |
| ABRAXAS1 (abraxas 1, BRCA1 A complex subunit) | 0.47 | 0.42 |
| ZNF16 (zinc finger protein 16) | 0.4 | 2.12 |
| SART3 (spliceosome associated factor 3, U4/U6 recycling protein) | 0.77 | 0.85 |
| AGO4 (argonaute RISC component 4) | 0.47 | 0.4 |
| DOC2B (double C2 domain beta) | 0.35 | 1.03 |
| CEP350 (centrosomal protein 350) | 0.44 | 1.52 |
| BRDT (bromodomain testis associated) | 0.84 | 1.05 |
| SMG7 (SMG7 nonsense mediated mRNA decay factor) | 0.23 (active) | 0.38 |
| ZNF19 (zinc finger protein 19) | 0.47 | 2.8 |
| BMAL1 (basic helix-loop-helix ARNT like 1) | 0.17 | 0.99 |
| SEC11B | 0.94 | 1.06 |
| ZNF398 (zinc finger protein 398) | 0.42 | 1.22 |
| SLIT2 (slit guidance ligand 2) | 0.68 | 1.02 |
| PAX9 (paired box 9) | 0.06 | 1.35 |
| RANBP17 (RAN binding protein 17) | 0.28 | 0.99 |
| CPEB3 (cytoplasmic polyadenylation element binding protein 3) | 0.77 | 0.75 |
| FAM20A (FAM20A golgi associated secretory pathway pseudokinase) | 0.4 | 1.45 |
| UBA7 (ubiquitin like modifier activating enzyme 7) | 0.49 | 1.18 |
| TYW1 (tRNA-yW synthesizing protein 1 homolog) | 0.83 | 0.65 |
| NTAN1 (N-terminal asparagine amidase) | 0.88 (active) | 0.7 |
| SLC13A4 | 0.06 | 2.61 |
| TBC1D3G (TBC1 domain family member 3G) | 0.98 | 0.88 |

Ordered by “lactate per cell with vemurafenib” (high to low): 14 of the entries above
| gene knocked down | cell gain with vemurafenib | lactate per cell with vemurafenib |
| --- | --- | --- |
| ZNF19 (zinc finger protein 19) | 0.47 | 2.8 |
| CEP350 (centrosomal protein 350) | 0.44 | 1.52 |
| PAX9 (paired box 9) | 0.06 | 1.35 |
| ZNF398 (zinc finger protein 398) | 0.42 | 1.22 |
| SEC11B | 0.94 | 1.06 |
| BRDT (bromodomain testis associated) | 0.84 | 1.05 |
| DOC2B (double C2 domain beta) | 0.35 | 1.03 |
| SLIT2 (slit guidance ligand 2) | 0.68 | 1.02 |
| BMAL1 (basic helix-loop-helix ARNT like 1) | 0.17 | 0.99 |
| RANBP17 (RAN binding protein 17) | 0.28 | 0.99 |
| SART3 (spliceosome associated factor 3, U4/U6 recycling protein) | 0.77 | 0.85 |
| CPEB3 (cytoplasmic polyadenylation element binding protein 3) | 0.77 | 0.75 |
| AGO4 (argonaute RISC component 4) | 0.47 | 0.4 |
| SMG7 (SMG7 nonsense mediated mRNA decay factor) | 0.23 (active) | 0.38 |

Continued.
| gene knocked down | cell gain with vemurafenib | lactate per cell with vemurafenib |
| --- | --- | --- |
| PREP (prolyl endopeptidase) | 0.56 | 1.02 |
| DEFA5 (defensin alpha 5) | 0.45 | 1.58 |
| TRAT1 (T cell receptor associated transmembrane adaptor 1) | 0.22 | 0.79 |
| KLF5 (KLF transcription factor 5) | 1.09 | 1.53 |
| H4C8 (H4 clustered histone 8) | 0.62 | 2.17 |
| FAM86B1 | 0.18 | 1.87 |
| SLC16A1 | 0.64 | 1.25 |
| CYP11B2 (cytochrome P450 family 11 subfamily B member 2) | 1.44 | 0.53 |
| DDB1 (damage specific DNA binding protein 1) | 0.34 | 1.27 |
| CCT6A (chaperonin containing TCP1 subunit 6A) | 0.74 | 0.86 |
| TCAIM (T cell activation inhibitor, mitochondrial) | 0.59 | 0.66 |
| TFAP2A (transcription factor AP-2 alpha) | 0.65 | 0.6 |
| DUSP1 (dual specificity phosphatase 1) | 0.57 | 1.15 |
| WHRN (whirlin) | 0.65 | 1.1 |
| TNNT3 (troponin T3, fast skeletal type) | 0.45 | 1.33 |
| DHX30 (DExH-box helicase 30) | 0.69 | 0.83 |
| GSTA5 (glutathione S-transferase alpha 5) | 0 | 0.3 |
| SULT1A3 (sulfotransferase family 1A member 3) | 0.84 | 1.31 |
| PLEKHM1 (pleckstrin homology and RUN domain containing M1) | 0.75 | 0.72 |
| KATNB1 (katanin regulatory subunit B1) | 0.55 (active) | 0.4 |
| EYS (EGF-like photoreceptor maintenance factor) | 0.43 | 0.29 |
| CYP2A7 (cytochrome P450 family 2 subfamily A member 7) | 0.8 | 0.46 |
| FANCA (FA complementation group A) | 0.45 | 0.92 |
| BANP (BTG3 associated nuclear protein) | 0.29 | 0.99 |
| NLRP12 (NLR family pyrin domain containing 12) | 0.91 | 1.05 |
| KIR3DS1 | 0.58 | 1.66 |
| ITGA8 (integrin subunit alpha 8) | 1.04 | 1.1 |
| NOC4L (nucleolar complex associated 4 homolog) | 0.7 | 0.62 |
| NDN (necdin, MAGE family member) | 0.89 | 0.86 |
| ODAM (odontogenic, ameloblast associated) | 0.86 | 0.79 |
| OR8K3 | -0.02 | 2.31 |
| CSN3 (casein kappa) | 0.27 | 1.2 |
| KLHL21 (kelch like family member 21) | 0.52 | 1.18 |
| CDC16 (cell division cycle 16) | 0.6 | 1.03 |
| PHF7 (PHD finger protein 7) | 0.9 | 1 |
| SLURP1 (secreted LY6/PLAUR domain containing 1) | 0.66 | 1.05 |
| SACK1G (scaffolding CK1 anchoring protein G) | 1.09 | 0.7 |
| UBE3C (ubiquitin protein ligase E3C) | 0.63 | 1.08 |
| SOX10 (SRY-box transcription factor 10) | 0.24 | 2.17 |
| OR2T35 | 1.04 | 0.32 |
| PITHD1 (PITH domain containing 1) | 0.66 | 0.62 |
| AMOT (angiomotin) | 0.83 | 1.09 |
| ALKAL2 (ALK and LTK ligand 2) | 0.67 | 0.5 |
| SKIC8 (SKI8 subunit of superkiller complex) | 0.1 | 1.46 |
| TFAP2E (transcription factor AP-2 epsilon) | 0.5 | 1.57 |
| DPYS (dihydropyrimidinase) | 0.58 | 0.73 |
| GPM6B (glycoprotein M6B) | 0.73 | 0.62 |
| RPL26L1 (ribosomal protein L26 like 1) | 0.3 | 2.4 |
| P2RY1 (purinergic receptor P2Y1) | 0.82 | 0.89 |
| TP53BP1 (tumor protein p53 binding protein 1) | 0.94 | 1.34 |
| ZNF287 (zinc finger protein 287) | -0.05 | 1.99 |
